Results taken from the supplement of paper PMC4604168 (melanoma cell lines).
Some of the results follow. Single values are uncertain, as repeats are few or missing.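 Imaging used 1,536-well plates; nuclei positive for cleaved PARP by antibody were divided by total DNA-stained nuclei to yield the apoptosis fraction. Doses for screening kept most cells viable, and cell lines differ markedly in resting and induced cleaved-PARP levels.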

What was measured:
Assay in all cases: cleaved PARP positive nuclei fraction relative to DMSO control; melanoma cells; higher = more apoptosis
Conditions in all cases: library dose: low library concentration; 72 h
501Mel = tested on: 501Mel
A101D = tested on: A101D
A2058 = tested on: A2058
C32 = tested on: C32
CBRC008 = tested on: CBRC008 (line from a melanoma biopsy)
CBRC014 = tested on: CBRC014 (line from a melanoma biopsy)
CBRC016 = tested on: CBRC016 (line from a melanoma biopsy)
CBRC017 = tested on: CBRC017 (line from a melanoma biopsy)

In the case of `Cc1ccc(Nc2nccc(N(C)c3ccc4c(C)n(C)nc4c3)n2)cc1S(N)(=O)=O` [Pazopanib] + O=C(Oc1ccc([N+](=O)[O-])cc1)N1CCC(C(O)(c2ccc3c(c2)OCO3)c2ccc3c(c2)OCO3)CC1 [JZL184] (first compound 0.4 µM, partner dose 1 µM), the “cleaved PARP positive nuclei fraction” value (501Mel) is reported as 65%, the “cleaved PARP positive nuclei fraction” value (A101D) is reported as 61.6% and the “cleaved PARP positive nuclei fraction” value (A2058) is reported as 88.8%. The “cleaved PARP positive nuclei fraction” value (C32) was 104%, the “cleaved PARP positive nuclei fraction” value (CBRC008) was 410% and the “cleaved PARP positive nuclei fraction” value (CBRC014) was 120%. For the same compound, the “cleaved PARP positive nuclei fraction” value (CBRC016) was 61.4% and the “cleaved PARP positive nuclei fraction” value (CBRC017) was 88.7%.

With `O=C(Nc1cc(C(F)(F)F)cc(C(F)(F)F)c1)c1cc(Cl)ccc1O` + C/C(O)=C(\C#N)C(=O)Nc1cc(Br)ccc1Br [LFM-A13] (first compound 0.016 µM, partner dose 2 µM) the “cleaved PARP positive nuclei fraction” value (501Mel) was 192%, the “cleaved PARP positive nuclei fraction” value (A101D) was 31.9% and the “cleaved PARP positive nuclei fraction” value (A2058) was 88.4%. The “cleaved PARP positive nuclei fraction” value (C32) was 158%, the “cleaved PARP positive nuclei fraction” value (CBRC008) was 190% and the “cleaved PARP positive nuclei fraction” value (CBRC014) was 100%. For the same compound, the “cleaved PARP positive nuclei fraction” value (CBRC016) was 91.9% and the “cleaved PARP positive nuclei fraction” value (CBRC017) was 143%.

For `N.N.[Cl][Pt][Cl]` [cisplatin] + C/C(O)=C(\C#N)C(=O)Nc1cc(Br)ccc1Br [LFM-A13] (first compound 1.6 µM, partner dose 2 µM), the “cleaved PARP positive nuclei fraction” value (501Mel) was 141%, the “cleaved PARP positive nuclei fraction” value (A101D) was 22.3% and the “cleaved PARP positive nuclei fraction” value (A2058) was 112%. For the same compound, the “cleaved PARP positive nuclei fraction” value (C32) was 186%, the “cleaved PARP positive nuclei fraction” value (CBRC008) was 174% and the “cleaved PARP positive nuclei fraction” value (CBRC014) was 107%. The “cleaved PARP positive nuclei fraction” value (CBRC016) was 349% and the “cleaved PARP positive nuclei fraction” value (CBRC017) was 175%.

`Cn1cc(C2=C(c3cn(C4CCN(Cc5ccccn5)CC4)c4ccccc34)C(=O)NC2=O)c2ccccc21` [Enzastaurin] + COc1cc2ncnc(Nc3ccc(Oc4ccccc4)cc3)c2cc1OC [SrcI1] (first compound 0.8 µM, partner dose 2 µM) was tested, and the “cleaved PARP positive nuclei fraction” value (501Mel) was 72.1%, the “cleaved PARP positive nuclei fraction” value (A101D) was 28.4% and the “cleaved PARP positive nuclei fraction” value (A2058) was 44.6%. The “cleaved PARP positive nuclei fraction” value (C32) was 38.9%, the “cleaved PARP positive nuclei fraction” value (CBRC008) was 145% and the “cleaved PARP positive nuclei fraction” value (CBRC014) was 172%. For the same compound, the “cleaved PARP positive nuclei fraction” value (CBRC016) was 41.4% and the “cleaved PARP positive nuclei fraction” value (CBRC017) was 106%.

In the case of `C[C@]12O[C@H](C[C@]1(O)CO)n1c3ccccc3c3c4c(c5c6ccccc6n2c5c31)CNC4=O` [Lestaurtinib] + C/C(O)=C(\C#N)C(=O)Nc1cc(Br)ccc1Br [LFM-A13] (first compound 0.004 µM, partner dose 2 µM), the “cleaved PARP positive nuclei fraction” value (501Mel) is reported as 24.7%, the “cleaved PARP positive nuclei fraction” value (A101D) is reported as 39.9% and the “cleaved PARP positive nuclei fraction” value (A2058) is reported as 220%. The “cleaved PARP positive nuclei fraction” value (C32) was 38.3%, the “cleaved PARP positive nuclei fraction” value (CBRC008) was 80.4% and the “cleaved PARP positive nuclei fraction” value (CBRC014) was 96.2%. The “cleaved PARP positive nuclei fraction” value (CBRC016) was 42.5% and the “cleaved PARP positive nuclei fraction” value (CBRC017) was 274%.

`NC1(c2ccc(-c3nc4ccn5c(=O)[nH]nc5c4cc3-c3ccccc3)cc2)CCC1` + O=C(Oc1ccc([N+](=O)[O-])cc1)N1CCC(C(O)(c2ccc3c(c2)OCO3)c2ccc3c(c2)OCO3)CC1 [JZL184] (first compound 0.4 µM, partner dose 1 µM) was tested, and the “cleaved PARP positive nuclei fraction” value (501Mel) was 75.1%, the “cleaved PARP positive nuclei fraction” value (A101D) was 82.3% and the “cleaved PARP positive nuclei fraction” value (A2058) was 75.8%. The “cleaved PARP positive nuclei fraction” value (C32) was 105%, the “cleaved PARP positive nuclei fraction” value (CBRC008) was 93.3% and the “cleaved PARP positive nuclei fraction” value (CBRC014) was 91.7%. The “cleaved PARP positive nuclei fraction” value (CBRC016) was 38.2% and the “cleaved PARP positive nuclei fraction” value (CBRC017) was 183%.

In the case of `N#CC[C@H](C1CCCC1)n1cc(-c2ncnc3[nH]ccc23)cn1` [ruxolitinib] + C/C(O)=C(\C#N)C(=O)Nc1cc(Br)ccc1Br [LFM-A13] (first compound 1 µM, partner dose 2 µM), the “cleaved PARP positive nuclei fraction” value (501Mel) is reported as 30%, the “cleaved PARP positive nuclei fraction” value (A101D) is reported as 22.1% and the “cleaved PARP positive nuclei fraction” value (A2058) is reported as 95.7%. The “cleaved PARP positive nuclei fraction” value (C32) was 131%, the “cleaved PARP positive nuclei fraction” value (CBRC008) was 110% and the “cleaved PARP positive nuclei fraction” value (CBRC014) was 92.4%. For the same compound, the “cleaved PARP positive nuclei fraction” value (CBRC016) was 134% and the “cleaved PARP positive nuclei fraction” value (CBRC017) was 85.8%.

In the case of `CN(c1ncccc1CNc1nc(Nc2ccc3c(c2)CC(=O)N3)ncc1C(F)(F)F)S(C)(=O)=O` + O=C(Oc1ccc([N+](=O)[O-])cc1)N1CCC(C(O)(c2ccc3c(c2)OCO3)c2ccc3c(c2)OCO3)CC1 [JZL184] (first compound 0.08 µM, partner dose 1 µM), the “cleaved PARP positive nuclei fraction” value (501Mel) is reported as 158%, the “cleaved PARP positive nuclei fraction” value (A101D) is reported as 36.4% and the “cleaved PARP positive nuclei fraction” value (A2058) is reported as 96%. The “cleaved PARP positive nuclei fraction” value (C32) was 339%, the “cleaved PARP positive nuclei fraction” value (CBRC008) was 69.9% and the “cleaved PARP positive nuclei fraction” value (CBRC014) was 101%. For the same compound, the “cleaved PARP positive nuclei fraction” value (CBRC016) was 44.5% and the “cleaved PARP positive nuclei fraction” value (CBRC017) was 87%.

`C[C@]12O[C@H](C[C@]1(O)CO)n1c3ccccc3c3c4c(c5c6ccccc6n2c5c31)CNC4=O` [Lestaurtinib] + O=C(Oc1ccc([N+](=O)[O-])cc1)N1CCC(C(O)(c2ccc3c(c2)OCO3)c2ccc3c(c2)OCO3)CC1 [JZL184] (first compound 0.004 µM, partner dose 1 µM) was tested, and the “cleaved PARP positive nuclei fraction” value (501Mel) was 127%, the “cleaved PARP positive nuclei fraction” value (A101D) was 29.5% and the “cleaved PARP positive nuclei fraction” value (A2058) was 75%. For the same compound, the “cleaved PARP positive nuclei fraction” value (C32) was 64.9%, the “cleaved PARP positive nuclei fraction” value (CBRC008) was 281% and the “cleaved PARP positive nuclei fraction” value (CBRC014) was 154%. The “cleaved PARP positive nuclei fraction” value (CBRC016) was 77.8% and the “cleaved PARP positive nuclei fraction” value (CBRC017) was 123%.

In the case of `Cn1cc(C2=C(c3cn(C4CCN(Cc5ccccn5)CC4)c4ccccc34)C(=O)NC2=O)c2ccccc21` [Enzastaurin] + O=C1NC(=O)/C(=C/c2ccc(-c3ccc(F)cc3O)o2)S1 [AS252424] (first compound 0.8 µM, partner dose 1 µM), the “cleaved PARP positive nuclei fraction” value (501Mel) is reported as 35.7%, the “cleaved PARP positive nuclei fraction” value (A101D) is reported as 41.8% and the “cleaved PARP positive nuclei fraction” value (A2058) is reported as 59.4%. For the same compound, the “cleaved PARP positive nuclei fraction” value (C32) was 41.3%, the “cleaved PARP positive nuclei fraction” value (CBRC008) was 120% and the “cleaved PARP positive nuclei fraction” value (CBRC014) was 118%. The “cleaved PARP positive nuclei fraction” value (CBRC016) was 106% and the “cleaved PARP positive nuclei fraction” value (CBRC017) was 102%.

`C[C@]12O[C@H](C[C@]1(O)CO)n1c3ccccc3c3c4c(c5c6ccccc6n2c5c31)CNC4=O` [Lestaurtinib] + O=C(O)C(=O)Nc1sc2c(c1C(=O)O)CCNC2 [TCS401] (first compound 0.004 µM, partner dose 1.66667 µM) was tested, and the “cleaved PARP positive nuclei fraction” value (501Mel) was 34.3%, the “cleaved PARP positive nuclei fraction” value (A101D) was 8.53% and the “cleaved PARP positive nuclei fraction” value (A2058) was 85.3%. The “cleaved PARP positive nuclei fraction” value (C32) was 38.4%, the “cleaved PARP positive nuclei fraction” value (CBRC008) was 62.8% and the “cleaved PARP positive nuclei fraction” value (CBRC014) was 77.7%. For the same compound, the “cleaved PARP positive nuclei fraction” value (CBRC016) was 75.1% and the “cleaved PARP positive nuclei fraction” value (CBRC017) was 71%.
